These are yes or no findings as the source states them, for the method shown. Binding seen in cells or lysates may run through a third protein. A yes stands for co-enrichment or nearness to the bait. Other partners may have been found. Sequences can lack the tags named with a protein.

Chains of the proteins cited; added tags and fusions are not shown.
UniProt Q8CHI8: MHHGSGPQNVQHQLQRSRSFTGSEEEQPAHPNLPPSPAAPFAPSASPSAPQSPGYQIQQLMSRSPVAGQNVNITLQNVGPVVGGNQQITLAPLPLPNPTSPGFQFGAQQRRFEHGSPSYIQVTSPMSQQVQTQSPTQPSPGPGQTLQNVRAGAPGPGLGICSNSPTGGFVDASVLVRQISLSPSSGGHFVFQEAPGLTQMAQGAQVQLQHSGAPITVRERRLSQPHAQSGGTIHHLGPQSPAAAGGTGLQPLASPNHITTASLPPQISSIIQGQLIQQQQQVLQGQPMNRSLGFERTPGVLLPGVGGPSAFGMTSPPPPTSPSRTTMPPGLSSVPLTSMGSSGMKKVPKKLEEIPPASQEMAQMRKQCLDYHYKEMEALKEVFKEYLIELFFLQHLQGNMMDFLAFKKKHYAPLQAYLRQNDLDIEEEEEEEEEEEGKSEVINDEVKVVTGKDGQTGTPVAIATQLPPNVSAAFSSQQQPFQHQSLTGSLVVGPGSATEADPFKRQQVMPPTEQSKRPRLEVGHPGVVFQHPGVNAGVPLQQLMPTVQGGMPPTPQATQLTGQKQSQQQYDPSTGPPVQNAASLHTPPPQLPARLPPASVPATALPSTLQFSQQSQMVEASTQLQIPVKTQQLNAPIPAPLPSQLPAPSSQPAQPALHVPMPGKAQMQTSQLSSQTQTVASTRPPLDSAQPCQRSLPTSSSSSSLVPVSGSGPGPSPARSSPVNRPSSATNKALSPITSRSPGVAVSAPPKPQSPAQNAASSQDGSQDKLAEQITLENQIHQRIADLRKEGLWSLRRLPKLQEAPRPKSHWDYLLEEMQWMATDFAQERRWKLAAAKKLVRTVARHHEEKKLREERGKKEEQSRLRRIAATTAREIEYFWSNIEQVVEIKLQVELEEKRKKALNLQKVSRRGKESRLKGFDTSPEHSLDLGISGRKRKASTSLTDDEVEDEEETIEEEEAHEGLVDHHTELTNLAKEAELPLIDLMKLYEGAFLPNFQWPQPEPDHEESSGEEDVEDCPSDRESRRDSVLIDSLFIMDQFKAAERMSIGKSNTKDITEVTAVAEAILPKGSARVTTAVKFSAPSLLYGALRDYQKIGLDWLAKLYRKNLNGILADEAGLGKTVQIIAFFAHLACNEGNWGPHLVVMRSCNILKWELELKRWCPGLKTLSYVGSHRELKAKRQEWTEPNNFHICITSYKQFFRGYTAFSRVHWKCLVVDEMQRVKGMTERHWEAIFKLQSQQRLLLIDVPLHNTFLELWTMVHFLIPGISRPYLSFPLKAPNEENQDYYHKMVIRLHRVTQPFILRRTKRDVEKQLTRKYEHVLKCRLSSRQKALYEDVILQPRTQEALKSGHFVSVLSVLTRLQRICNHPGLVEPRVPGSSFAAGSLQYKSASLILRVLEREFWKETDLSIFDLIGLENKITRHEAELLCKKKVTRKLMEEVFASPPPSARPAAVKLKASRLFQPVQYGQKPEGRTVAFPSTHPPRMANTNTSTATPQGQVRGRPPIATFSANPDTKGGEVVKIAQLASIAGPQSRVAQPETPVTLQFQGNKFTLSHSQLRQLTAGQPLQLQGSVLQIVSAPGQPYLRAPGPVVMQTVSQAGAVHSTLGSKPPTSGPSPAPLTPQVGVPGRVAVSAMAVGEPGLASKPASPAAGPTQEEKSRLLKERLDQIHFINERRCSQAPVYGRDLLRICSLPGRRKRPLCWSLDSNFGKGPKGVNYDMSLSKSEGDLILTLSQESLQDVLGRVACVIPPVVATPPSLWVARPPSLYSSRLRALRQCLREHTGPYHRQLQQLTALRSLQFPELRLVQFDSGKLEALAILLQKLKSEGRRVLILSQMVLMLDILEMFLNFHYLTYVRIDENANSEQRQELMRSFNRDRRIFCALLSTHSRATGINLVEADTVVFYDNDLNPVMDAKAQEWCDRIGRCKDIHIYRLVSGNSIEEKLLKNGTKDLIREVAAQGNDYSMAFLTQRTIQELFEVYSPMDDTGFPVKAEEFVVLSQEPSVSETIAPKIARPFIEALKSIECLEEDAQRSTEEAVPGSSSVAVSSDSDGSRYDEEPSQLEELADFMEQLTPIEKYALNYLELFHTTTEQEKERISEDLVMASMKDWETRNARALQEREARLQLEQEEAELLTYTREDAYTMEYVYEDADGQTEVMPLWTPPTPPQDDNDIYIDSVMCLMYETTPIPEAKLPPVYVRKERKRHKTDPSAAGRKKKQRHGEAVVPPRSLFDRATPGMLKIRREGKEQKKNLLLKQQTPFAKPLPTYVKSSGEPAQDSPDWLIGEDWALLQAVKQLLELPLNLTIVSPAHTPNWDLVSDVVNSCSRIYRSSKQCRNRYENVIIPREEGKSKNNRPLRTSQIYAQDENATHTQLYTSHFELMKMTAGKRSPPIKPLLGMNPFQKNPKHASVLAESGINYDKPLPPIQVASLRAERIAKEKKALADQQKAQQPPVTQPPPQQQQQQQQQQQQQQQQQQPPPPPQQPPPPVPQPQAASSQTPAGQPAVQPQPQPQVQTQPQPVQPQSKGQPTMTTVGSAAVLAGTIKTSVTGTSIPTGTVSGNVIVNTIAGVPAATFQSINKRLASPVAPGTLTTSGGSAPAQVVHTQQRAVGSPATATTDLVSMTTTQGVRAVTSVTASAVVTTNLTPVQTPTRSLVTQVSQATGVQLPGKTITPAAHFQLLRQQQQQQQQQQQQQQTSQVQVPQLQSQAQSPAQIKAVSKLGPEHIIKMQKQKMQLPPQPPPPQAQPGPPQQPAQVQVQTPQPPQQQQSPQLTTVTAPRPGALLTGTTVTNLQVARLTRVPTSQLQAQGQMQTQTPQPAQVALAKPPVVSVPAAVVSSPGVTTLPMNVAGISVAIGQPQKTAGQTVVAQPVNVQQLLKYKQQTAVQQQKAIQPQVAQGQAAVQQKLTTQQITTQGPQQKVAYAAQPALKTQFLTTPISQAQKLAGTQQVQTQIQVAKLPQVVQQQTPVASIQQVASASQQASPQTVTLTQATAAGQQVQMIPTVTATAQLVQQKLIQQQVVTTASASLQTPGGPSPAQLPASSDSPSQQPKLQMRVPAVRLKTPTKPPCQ
UniProt Q8CHK4: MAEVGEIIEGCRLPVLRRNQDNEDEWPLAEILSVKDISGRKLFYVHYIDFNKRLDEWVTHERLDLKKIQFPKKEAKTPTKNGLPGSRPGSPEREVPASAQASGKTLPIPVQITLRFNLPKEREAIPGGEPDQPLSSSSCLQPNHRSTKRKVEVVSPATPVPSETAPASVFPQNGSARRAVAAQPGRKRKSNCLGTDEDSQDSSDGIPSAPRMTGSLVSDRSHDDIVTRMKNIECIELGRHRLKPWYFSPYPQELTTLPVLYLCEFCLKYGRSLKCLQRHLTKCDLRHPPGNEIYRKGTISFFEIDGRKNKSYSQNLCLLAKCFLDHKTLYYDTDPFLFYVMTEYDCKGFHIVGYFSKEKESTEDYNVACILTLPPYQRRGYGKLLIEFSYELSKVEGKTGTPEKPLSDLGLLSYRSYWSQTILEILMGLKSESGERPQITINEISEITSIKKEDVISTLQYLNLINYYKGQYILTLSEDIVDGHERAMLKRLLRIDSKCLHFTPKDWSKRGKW
UniProt Q2EMV9: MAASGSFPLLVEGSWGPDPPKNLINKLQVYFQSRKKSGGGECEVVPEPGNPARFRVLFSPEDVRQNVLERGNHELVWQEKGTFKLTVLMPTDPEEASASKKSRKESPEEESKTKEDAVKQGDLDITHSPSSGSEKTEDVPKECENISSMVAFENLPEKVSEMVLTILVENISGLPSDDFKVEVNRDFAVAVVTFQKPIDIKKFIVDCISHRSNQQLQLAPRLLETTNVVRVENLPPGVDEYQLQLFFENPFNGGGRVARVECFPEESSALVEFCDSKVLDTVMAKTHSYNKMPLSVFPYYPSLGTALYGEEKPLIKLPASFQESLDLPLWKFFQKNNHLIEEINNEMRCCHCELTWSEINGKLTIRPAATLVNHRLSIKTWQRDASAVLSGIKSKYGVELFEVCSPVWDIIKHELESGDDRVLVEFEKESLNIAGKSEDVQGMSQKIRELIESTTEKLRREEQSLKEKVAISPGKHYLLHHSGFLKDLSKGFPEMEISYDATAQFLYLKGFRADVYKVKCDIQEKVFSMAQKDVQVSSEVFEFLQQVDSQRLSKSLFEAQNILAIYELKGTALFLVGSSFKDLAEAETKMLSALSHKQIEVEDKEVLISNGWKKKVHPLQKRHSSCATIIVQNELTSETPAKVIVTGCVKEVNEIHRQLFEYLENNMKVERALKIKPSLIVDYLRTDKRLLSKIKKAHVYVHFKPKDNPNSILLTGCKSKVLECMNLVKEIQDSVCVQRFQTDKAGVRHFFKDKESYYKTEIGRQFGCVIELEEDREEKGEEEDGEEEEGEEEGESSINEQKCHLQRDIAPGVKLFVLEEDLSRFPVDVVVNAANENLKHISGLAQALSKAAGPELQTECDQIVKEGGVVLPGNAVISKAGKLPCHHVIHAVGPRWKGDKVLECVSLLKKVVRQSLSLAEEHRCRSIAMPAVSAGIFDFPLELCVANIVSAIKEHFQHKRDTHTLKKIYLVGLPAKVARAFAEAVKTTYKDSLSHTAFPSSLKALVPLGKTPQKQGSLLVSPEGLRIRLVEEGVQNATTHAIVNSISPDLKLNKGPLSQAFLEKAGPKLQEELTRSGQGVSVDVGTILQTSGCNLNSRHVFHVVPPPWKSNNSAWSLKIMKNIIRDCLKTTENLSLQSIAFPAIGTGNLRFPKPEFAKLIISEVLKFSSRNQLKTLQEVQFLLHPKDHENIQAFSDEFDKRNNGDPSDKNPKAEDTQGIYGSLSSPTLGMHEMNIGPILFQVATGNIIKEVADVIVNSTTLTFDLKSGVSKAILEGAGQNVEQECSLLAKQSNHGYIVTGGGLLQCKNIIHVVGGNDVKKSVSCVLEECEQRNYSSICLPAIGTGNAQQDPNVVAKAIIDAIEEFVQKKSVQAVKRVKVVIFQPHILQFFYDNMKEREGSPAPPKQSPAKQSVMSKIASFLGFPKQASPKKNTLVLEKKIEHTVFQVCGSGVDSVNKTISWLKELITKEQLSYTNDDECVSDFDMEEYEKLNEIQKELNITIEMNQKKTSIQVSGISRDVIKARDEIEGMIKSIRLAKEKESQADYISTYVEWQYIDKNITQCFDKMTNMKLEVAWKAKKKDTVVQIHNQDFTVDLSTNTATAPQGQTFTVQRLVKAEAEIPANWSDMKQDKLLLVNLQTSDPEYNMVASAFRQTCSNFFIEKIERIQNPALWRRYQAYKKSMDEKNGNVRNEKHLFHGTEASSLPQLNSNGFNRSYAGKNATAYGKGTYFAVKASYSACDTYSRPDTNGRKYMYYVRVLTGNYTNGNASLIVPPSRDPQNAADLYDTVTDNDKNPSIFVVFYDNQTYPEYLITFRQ
UniProt Q62481: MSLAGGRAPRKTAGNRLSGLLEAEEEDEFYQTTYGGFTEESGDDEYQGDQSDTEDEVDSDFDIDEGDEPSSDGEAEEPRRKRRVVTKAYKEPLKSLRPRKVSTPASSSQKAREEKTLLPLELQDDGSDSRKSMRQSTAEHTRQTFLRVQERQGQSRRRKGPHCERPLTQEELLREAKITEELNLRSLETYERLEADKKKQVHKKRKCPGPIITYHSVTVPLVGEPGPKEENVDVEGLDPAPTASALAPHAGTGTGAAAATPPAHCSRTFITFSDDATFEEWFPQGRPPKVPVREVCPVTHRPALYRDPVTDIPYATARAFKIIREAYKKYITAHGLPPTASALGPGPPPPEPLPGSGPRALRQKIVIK

Consider seven substances from publication PMC11148166.

In this assay the target is T1, STAT1-TurboID-V5 (mouse) (UniProt P42225).
T1 sequence: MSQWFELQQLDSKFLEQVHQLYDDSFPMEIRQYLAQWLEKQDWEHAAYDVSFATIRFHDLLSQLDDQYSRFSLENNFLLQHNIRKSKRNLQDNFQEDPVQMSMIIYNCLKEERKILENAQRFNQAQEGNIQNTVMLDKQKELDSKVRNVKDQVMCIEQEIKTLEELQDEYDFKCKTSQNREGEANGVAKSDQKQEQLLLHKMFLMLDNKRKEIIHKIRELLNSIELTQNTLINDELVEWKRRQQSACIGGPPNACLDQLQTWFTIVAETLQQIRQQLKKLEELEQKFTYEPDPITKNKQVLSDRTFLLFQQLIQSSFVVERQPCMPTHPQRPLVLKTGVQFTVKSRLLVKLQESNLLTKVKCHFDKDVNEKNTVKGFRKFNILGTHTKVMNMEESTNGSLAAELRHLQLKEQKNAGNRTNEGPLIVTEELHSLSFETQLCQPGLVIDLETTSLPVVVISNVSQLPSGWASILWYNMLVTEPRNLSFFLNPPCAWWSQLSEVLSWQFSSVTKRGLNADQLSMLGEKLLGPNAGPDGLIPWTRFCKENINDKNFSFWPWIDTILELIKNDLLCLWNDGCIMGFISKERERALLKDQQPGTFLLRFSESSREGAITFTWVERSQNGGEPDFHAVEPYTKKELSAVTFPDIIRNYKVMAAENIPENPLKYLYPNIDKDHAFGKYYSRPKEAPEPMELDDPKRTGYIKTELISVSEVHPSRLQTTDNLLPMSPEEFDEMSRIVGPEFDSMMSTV
The assay is described as follows: proximity labelling; TurboID; STAT1-TurboID-V5 (STAT1-BirA*) in Stat1-/- RAW 264.7 cells, Dox 24 h, untreated or IFNβ or IFNγ 3 h, 500 µM biotin 10 min; nuclear extracts, streptavidin beads, mass spectrometry; log2FC >= 1 above BirA*-NLS control, Padj <0.05.

As for AHNAK (from UniProt E9Q616 1-5656), the binding result is “binds”.

Consider “Al607873 (mouse (endogenous in RAW 264.7))”, for which the binding entry is “binds”.

As for EP400 (from UniProt Q8CHI8 1-3072), the binding result was “binds”.

With Gemin5 (from UniProt Q8BX17 1-1502), the binding entry is given as “binds”.

As for KAT5 (from UniProt Q8CHK4 1-513), the binding entry is given as “binds”.

Turning to Parp14 (from UniProt Q2EMV9 1-1817), the binding entry is “binds”.

Regarding VPS72 (from UniProt Q62481 1-368), the binding entry was “binds”.
